This passage reports binding results from article PMC8575317.

Protein sequences, listed by entry. Tags and fused reporters are not part of them. Lines headed by an entry give the natural chain unless they say otherwise; changes in a name come on top.
UniProt A4HXC9: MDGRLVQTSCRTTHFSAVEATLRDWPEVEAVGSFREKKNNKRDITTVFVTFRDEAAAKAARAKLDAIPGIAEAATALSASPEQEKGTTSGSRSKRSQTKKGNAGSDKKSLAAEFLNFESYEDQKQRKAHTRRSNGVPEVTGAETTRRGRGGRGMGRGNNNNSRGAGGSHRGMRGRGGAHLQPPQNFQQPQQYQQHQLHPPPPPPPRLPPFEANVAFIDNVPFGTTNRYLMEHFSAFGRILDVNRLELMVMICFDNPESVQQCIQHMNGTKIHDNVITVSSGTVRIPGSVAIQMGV
UniProt E9AHW1: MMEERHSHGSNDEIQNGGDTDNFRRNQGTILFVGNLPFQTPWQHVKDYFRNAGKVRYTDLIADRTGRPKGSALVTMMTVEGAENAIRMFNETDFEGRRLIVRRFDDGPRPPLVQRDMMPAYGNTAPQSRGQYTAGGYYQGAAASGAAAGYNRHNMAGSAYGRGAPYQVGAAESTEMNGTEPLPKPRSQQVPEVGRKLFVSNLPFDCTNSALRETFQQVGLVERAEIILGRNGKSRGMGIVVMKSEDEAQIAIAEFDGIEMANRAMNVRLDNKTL
UniProt A4I2T3: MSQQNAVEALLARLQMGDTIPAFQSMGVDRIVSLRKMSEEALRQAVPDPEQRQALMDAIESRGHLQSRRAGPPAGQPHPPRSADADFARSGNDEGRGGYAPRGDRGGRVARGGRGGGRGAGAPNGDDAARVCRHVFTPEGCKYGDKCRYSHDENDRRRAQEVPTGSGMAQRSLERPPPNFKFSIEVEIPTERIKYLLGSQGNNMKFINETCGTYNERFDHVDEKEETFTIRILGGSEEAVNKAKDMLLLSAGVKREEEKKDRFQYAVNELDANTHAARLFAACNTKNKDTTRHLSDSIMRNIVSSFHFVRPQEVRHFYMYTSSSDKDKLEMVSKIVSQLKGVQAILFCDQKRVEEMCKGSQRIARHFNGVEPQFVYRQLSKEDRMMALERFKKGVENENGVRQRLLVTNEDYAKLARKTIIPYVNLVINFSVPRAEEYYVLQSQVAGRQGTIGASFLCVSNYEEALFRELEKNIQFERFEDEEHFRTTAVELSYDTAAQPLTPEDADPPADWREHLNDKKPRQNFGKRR

These are yes or no findings as the source states them, for the method shown. Binding seen in cells or lysates may run through a third protein. These calls come from enrichment with a bait or labelling near it, and not all partners need be listed. For some assays here: Tags and fused reporters may be left off the sequences shown.

The target of assay [1] is T1, HA-tagged L. infantum PABP1 (L. infantum) (UniProt A4IC57).
T1 sequence: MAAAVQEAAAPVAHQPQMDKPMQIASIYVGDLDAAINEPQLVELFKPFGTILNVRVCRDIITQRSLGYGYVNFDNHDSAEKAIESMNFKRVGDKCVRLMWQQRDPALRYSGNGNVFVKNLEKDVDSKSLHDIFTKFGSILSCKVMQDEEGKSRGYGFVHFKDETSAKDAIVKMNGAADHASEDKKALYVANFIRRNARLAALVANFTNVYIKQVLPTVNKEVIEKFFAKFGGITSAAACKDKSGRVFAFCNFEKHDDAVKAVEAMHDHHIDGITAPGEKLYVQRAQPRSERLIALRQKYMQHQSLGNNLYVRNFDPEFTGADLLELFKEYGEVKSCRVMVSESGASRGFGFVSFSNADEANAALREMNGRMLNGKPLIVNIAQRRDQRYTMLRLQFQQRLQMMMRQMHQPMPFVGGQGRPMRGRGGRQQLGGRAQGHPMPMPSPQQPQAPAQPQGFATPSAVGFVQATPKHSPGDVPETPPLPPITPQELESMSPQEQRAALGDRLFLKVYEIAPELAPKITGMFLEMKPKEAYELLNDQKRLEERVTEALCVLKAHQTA
Nature of the assay: affinity purification with mass spectrometry; pilot analysis: anti-HA IPs of HA-tagged PABP1, PABP2 or PABP3 from L. infantum cytoplasmic extracts (lysis with glass beads), not RNase treated; two independent experiments.

The target of assay [2] is T2, HA-tagged L. infantum PABP3 (L. infantum) (UniProt A4I150).
T2 sequence: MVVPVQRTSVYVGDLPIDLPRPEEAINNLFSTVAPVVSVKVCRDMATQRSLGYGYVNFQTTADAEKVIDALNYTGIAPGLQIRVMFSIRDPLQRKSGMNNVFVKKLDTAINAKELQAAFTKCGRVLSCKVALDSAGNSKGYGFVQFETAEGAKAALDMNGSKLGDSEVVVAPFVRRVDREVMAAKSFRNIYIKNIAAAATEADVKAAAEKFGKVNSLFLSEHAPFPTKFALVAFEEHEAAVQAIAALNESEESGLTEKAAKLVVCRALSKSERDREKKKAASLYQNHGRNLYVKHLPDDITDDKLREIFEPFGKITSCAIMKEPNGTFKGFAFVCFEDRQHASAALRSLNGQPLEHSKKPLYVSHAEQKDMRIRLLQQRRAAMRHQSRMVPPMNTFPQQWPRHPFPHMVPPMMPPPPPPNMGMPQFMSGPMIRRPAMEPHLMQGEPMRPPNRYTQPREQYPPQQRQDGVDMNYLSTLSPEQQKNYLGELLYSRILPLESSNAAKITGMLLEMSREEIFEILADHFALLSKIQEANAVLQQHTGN
The description is as above.

The target in assay [3] is T3, HA-tagged L. infantum PABP2 (L. infantum) (UniProt A4IBV3).
T3 sequence: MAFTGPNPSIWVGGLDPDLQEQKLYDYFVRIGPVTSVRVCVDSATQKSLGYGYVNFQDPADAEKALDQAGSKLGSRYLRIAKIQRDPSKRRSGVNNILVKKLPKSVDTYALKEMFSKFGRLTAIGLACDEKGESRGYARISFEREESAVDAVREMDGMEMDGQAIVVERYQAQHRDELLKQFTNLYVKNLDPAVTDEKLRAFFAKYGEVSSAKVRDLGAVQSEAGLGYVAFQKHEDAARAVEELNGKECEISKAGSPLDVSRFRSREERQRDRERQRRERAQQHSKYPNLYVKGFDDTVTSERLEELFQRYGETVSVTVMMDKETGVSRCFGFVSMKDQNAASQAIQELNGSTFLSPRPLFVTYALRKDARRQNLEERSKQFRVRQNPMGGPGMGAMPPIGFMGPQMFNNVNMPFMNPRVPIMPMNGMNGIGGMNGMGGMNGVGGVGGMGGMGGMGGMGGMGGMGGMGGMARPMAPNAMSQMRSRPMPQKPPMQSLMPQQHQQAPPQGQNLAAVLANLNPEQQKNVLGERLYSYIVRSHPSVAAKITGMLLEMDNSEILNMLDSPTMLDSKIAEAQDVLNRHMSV
The assay is described as above.

The target of assay [4] is HA-tagged L. infantum RBP23 (L. infantum) (UniProt A4HXC9). The assay can be described thus: affinity purification with mass spectrometry; anti-HA magnetic beads, HA-tagged RBP23 or DRBD2 from L. infantum cytoplasmic extracts (nitrogen cavitation), 1 h at 4 C, washed with PBS, not RNase treated; control: extracts of non-transfected cells; two independent experiments.
Assay [5] has as its target HA-tagged L. infantum DRBD2 (L. infantum) (UniProt E9AHW1). The description is as above.

For “CCCH-Zinc finger 41 (from UniProt A4I2T3)”, the binding result in assay [1], in assay [2], in assay [3], in assay [4] and in assay [5] was “binds” in each case.
“DRBD2 (dsRNA-binding domain 2) (from UniProt E9AHW1)”: the binding entry in assay [3] is on record as “binds”.
Regarding “RNA-binding protein 23 (from UniProt A4HXC9)”, the binding result in assay [1] and in assay [5] was “binds” each time.
